The other results are listed elsewhere or left out.
These sequences were tested against T1, OsSMF1 (Oryza sativa, UniProt Q6ZLB0 1-436) (assay: protein-binding microarray (RPBM); PBS, 2% BSA, 51.3 ng/ul salmon testes DNA, 50 uM zinc acetate, 200 nM TF, 25 C, 1 h; high values mean tight binding). Conditions: protein: recombinant; tags: N-terminal polyhistidine and DsRed monomer fusion (pET32a); chain copies: 2; label: CyDye5-dUTP incorporated in the synthesized complementary strand; 3' TTTTT single-stranded linker to array surface; dsDNA, one strand shown.
T1 sequence: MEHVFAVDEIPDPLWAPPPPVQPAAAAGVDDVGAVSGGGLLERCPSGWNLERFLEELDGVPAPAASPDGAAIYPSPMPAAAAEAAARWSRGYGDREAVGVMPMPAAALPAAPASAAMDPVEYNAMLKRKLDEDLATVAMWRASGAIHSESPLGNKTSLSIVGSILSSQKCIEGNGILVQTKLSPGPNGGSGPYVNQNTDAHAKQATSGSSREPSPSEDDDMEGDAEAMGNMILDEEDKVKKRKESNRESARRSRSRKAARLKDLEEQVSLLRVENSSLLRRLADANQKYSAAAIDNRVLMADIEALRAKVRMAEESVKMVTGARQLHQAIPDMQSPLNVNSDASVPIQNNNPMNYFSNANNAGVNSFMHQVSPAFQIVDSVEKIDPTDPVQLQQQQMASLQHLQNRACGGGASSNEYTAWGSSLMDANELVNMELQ
Outline: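 The binding signal is fluorescence intensity per array feature (arbitrary units). Readings came from an Axon 4000B scanner after a washed, 2% BSA-blocked, double-stranded custom Agilent array had been incubated for 1 h at 25 °C with 200 nM protein and 50 µM zinc acetate. The protein was a Ni–NTA-purified transcription factor fused N-terminally to polyhistidine and DsRed, expressed in E. coli BL21-CodonPlus.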
In the case of “ATTTATACAACAACCAGTGACTCATCAATTATCGCGGTGGCGGAGTCACCTAGTGCAG”, the binding signal is reported as 16900 fluorescence intensity (a.u.). For “ACTCCTAAATTTAGCTCCAGGAGTTAGTCTGGAGTAGAGTCGGAGTCACCTAGTGCAG”, the binding signal was 3280 fluorescence intensity (a.u.). In the case of “CACCAAACGACATTCGTGCGGCGCAGGTGGAGTGGACGGACGGAGTCACCTAGTGCAG”, the binding signal is reported as 3140 fluorescence intensity (a.u.). With “CCAGCGAGACGTTCGATCGTTCGGTTGTCTACGTGGCAATCGGAGTCACCTAGTGCAG” the binding signal was 13700 fluorescence intensity (a.u.). With “CTGGAGCGGGCGGCCACGGTCACGCCACGTCAGCTTCCATCGGAGTCACCTAGTGCAG” the binding signal was 42100 fluorescence intensity (a.u.). For “CCACAACCTCTCTCACCACCCTGTCATCTGCACCACTGTCCGGAGTCACCTAGTGCAG”, the binding signal was 4300 fluorescence intensity (a.u.). With “TACTTTATTTTGATTTTCGTGGGAGGTGACGTGGGCGCTTCGGAGTCACCTAGTGCAG” the binding signal was 19300 fluorescence intensity (a.u.). With “TCCACATGTCTATCTTACATATTTTCTTGGTTCCTGTGCTCGGAGTCACCTAGTGCAG” the binding signal was 3440 fluorescence intensity (a.u.). With “TTGGCTGATGTGACGCCTACGTGGCTGGTTTGACTTGGTCCGGAGTCACCTAGTGCAG” the binding signal was 23300 fluorescence intensity (a.u.). In the case of “TTGTTCTGTCGATCCATCGGTATCCTGGTCAATTGGCAAGCGGAGTCACCTAGTGCAG”, the binding signal is reported as 3160 fluorescence intensity (a.u.). “GCCAAACAATGACCCTGATTTCGTGTCGTGGTTTTATATCCGGAGTCACCTAGTGCAG” was tested, and the binding signal was 3850 fluorescence intensity (a.u.). For “TACTGGAACAACAGATAGCATGATGACTACACAGTACACACGGAGTCACCTAGTGCAG”, the binding signal was 3160 fluorescence intensity (a.u.). With “CATCACAACACCTAAAAGACATGCCGTGATGCTAGAACAGCGGAGTCACCTAGTGCAG” the binding signal was 33100 fluorescence intensity (a.u.). In the case of “AGATTCATAATACTAGGTTGAGTCACATACTCAAGAGTCACGGAGTCACCTAGTGCAG”, the binding signal is reported as 7190 fluorescence intensity (a.u.). For “CATTCAGTTCTTTGACAGTAGACTATATCTGGGTGTAGCACGGAGTCACCTAGTGCAG”, the binding signal was 3200 fluorescence intensity (a.u.). In the case of “AAGAAATGGGCCGGAACGGACAGTTGGACGTGGAAGGCCCCGGAGTCACCTAGTGCAG”, the binding signal is reported as 3420 fluorescence intensity (a.u.). For “AAATCCGGCCCAGCTTTGTGCTGACACTGACATGCGGGGCCGGAGTCACCTAGTGCAG”, the binding signal was 4640 fluorescence intensity (a.u.). In the case of “AAAGTGACCCACGGTGACGCGGCAATAAAACGTCGAGGGCCGGAGTCACCTAGTGCAG”, the binding signal is reported as 10000 fluorescence intensity (a.u.). For “GGTCCTGCGGCCGCTGGCCTTGCTCGAGGACACGCTCCGGCGGAGTCACCTAGTGCAG”, the binding signal was 3160 fluorescence intensity (a.u.). For “TCAACTCAACTCATCAAGATATCATCATCATCAGAGAGGTCGGAGTCACCTAGTGCAG”, the binding signal was 4500 fluorescence intensity (a.u.). With “AAATGTACTTAATCACAGCCGGTGACTGACACGTTGGGTCCGGAGTCACCTAGTGCAG” the binding signal was 6700 fluorescence intensity (a.u.). For “CTCCAAGGGCCGGTTGTTGGTGTCATCAATCTGCTCCGCACGGAGTCACCTAGTGCAG”, the binding signal was 5750 fluorescence intensity (a.u.). For “AGTGCATGCCACGTTGTTTGTGCACCGTGTCTCAGAGCTGCGGAGTCACCTAGTGCAG”, the binding signal was 10300 fluorescence intensity (a.u.). With “CACTACCGGATCCGTGGCCACTATGCGTGGGGAGGGCGGTCGGAGTCACCTAGTGCAG” the binding signal was 3720 fluorescence intensity (a.u.). “ACACGTTCAAAATGAACGTGCTCTTCTGGACACGTGGCATCGGAGTCACCTAGTGCAG” was tested, and the binding signal was 22700 fluorescence intensity (a.u.). For “GCGGAGGCCGCCGGCTGACGTGGCTCCCAACGGCCGGGAGCGGAGTCACCTAGTGCAG”, the binding signal was 21200 fluorescence intensity (a.u.). For “ATTAAAATAATATCCTAGTTATAACTTTCCAACCTATACACGGAGTCACCTAGTGCAG”, the binding signal was 27200 fluorescence intensity (a.u.). In the case of “CTGAAGCAGCTGTGACGAACAGCTTGTTGCATTTCCTGCTCGGAGTCACCTAGTGCAG”, the binding signal is reported as 4400 fluorescence intensity (a.u.). “ACGACGTGCCCGCGATGACGACGTCTTCCTGTCCACGTCGCGGAGTCACCTAGTGCAG” was tested, and the binding signal was 4210 fluorescence intensity (a.u.). In the case of “AAGTTTTCCTAGAACTGTATAGGCATGCACTAGTTTGCAACGGAGTCACCTAGTGCAG”, the binding signal is reported as 34700 fluorescence intensity (a.u.). For “TTCGTCCTTTAATTGCTTTCCTGTTGCCAGCTTGCTTTATCGGAGTCACCTAGTGCAG”, the binding signal was 3460 fluorescence intensity (a.u.). “TCTGCTTTCATTTGTGTTCATTATTGATATCTTTTGAACCCGGAGTCACCTAGTGCAG” was tested, and the binding signal was 25300 fluorescence intensity (a.u.). “AGGAGCAGCAACCCAACACAGTACCGCGCGACACTGTAGCCGGAGTCACCTAGTGCAG” was tested, and the binding signal was 5390 fluorescence intensity (a.u.). “AATGTTCTCCGGTGACACTAAATTATATTTGTTATGTTGGCGGAGTCACCTAGTGCAG” was tested, and the binding signal was 3400 fluorescence intensity (a.u.). For “TGATCTCTGACCTGTGATCTGTCAGATGGACTGAAACCTACGGAGTCACCTAGTGCAG”, the binding signal was 4110 fluorescence intensity (a.u.). For “CGTGTGCCTCCAACCTCGCGGCACACGTGACACAGACGCTCGGAGTCACCTAGTGCAG”, the binding signal was 3220 fluorescence intensity (a.u.). “AATCTGTTGACTGGTTACATCATCAGTAAGTGGTAGGAAACGGAGTCACCTAGTGCAG” was tested, and the binding signal was 3200 fluorescence intensity (a.u.). With “CACTAGTGTGAGTGCCGGCTTCCCTGACATCGAATAGCATCGGAGTCACCTAGTGCAG” the binding signal was 3170 fluorescence intensity (a.u.). “ATAACAGCTCATGTCAATGCTCTACTCATCATTGGTGGAGCGGAGTCACCTAGTGCAG” was tested, and the binding signal was 3200 fluorescence intensity (a.u.). In the case of “CTGCCTCCTCCTTCTGTGATCACTTCTTGCAAACCAATCGCGGAGTCACCTAGTGCAG”, the binding signal is reported as 4080 fluorescence intensity (a.u.). In the case of “AGGCAATCTCTCATCTCATGACTAGACTTTGACAAGTTGTCGGAGTCACCTAGTGCAG”, the binding signal is reported as 5570 fluorescence intensity (a.u.). With “TTGGTTTGAGGCCTAAATTAGACTTATCAATATTTGACAACGGAGTCACCTAGTGCAG” the binding signal was 38600 fluorescence intensity (a.u.).

Reference: article PMC7819943, “Rice protein-binding microarrays: a tool to detect cis-acting elements near promoter regions in rice”
